The list shows a part of the results.
The sequences below were run against OsWRKY34 (Oryza sativa, UniProt Q0JBA9 1-250) (assay: protein-binding microarray (RPBM); PBS, 2% BSA, 51.3 ng/ul salmon testes DNA, 50 uM zinc acetate, 200 nM TF, 25 C, 1 h; high values mean tight binding). Settings: protein: recombinant; tags: N-terminal polyhistidine and DsRed monomer fusion (pET32a); label: CyDye5-dUTP incorporated in the synthesized complementary strand; 3' TTTTT single-stranded linker to array surface; dsDNA, one strand shown.
Method in brief: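 Ni–NTA purification followed expression in E. coli BL21-CodonPlus of transcription factors fused N-terminally to a polyhistidine tag and DsRed. At 200 nM in PBS with 2% BSA, salmon testes DNA and 50 µM zinc acetate, the protein was incubated for 1 h at 25 °C with a custom Agilent array that had been primer-extended with Cy5-dUTP and blocked with 2% BSA. After washing, the array was read on an Axon 4000B scanner. The binding signal is per-feature fluorescence intensity in arbitrary units.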

Sequences of proteins named here, by UniProt entry; tags and fusion partners are left off.
UniProt Q0JBA9, entry or part of it: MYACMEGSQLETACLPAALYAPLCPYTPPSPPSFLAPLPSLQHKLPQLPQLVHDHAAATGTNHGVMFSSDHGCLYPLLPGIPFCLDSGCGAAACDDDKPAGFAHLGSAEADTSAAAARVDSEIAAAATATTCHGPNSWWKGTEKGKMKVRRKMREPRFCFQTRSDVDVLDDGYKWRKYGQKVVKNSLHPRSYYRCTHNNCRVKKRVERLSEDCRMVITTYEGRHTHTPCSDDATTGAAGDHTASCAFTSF

Row | Sequence | binding signal
1 | GCAACGTTCGACCACTCGTTTCATTCATTTTTTTTGAAATCGGAGTCACCTAGTGCAG | 10800 fluorescence intensity (a.u.)
2 | AGGTAGGGAGGGTTTTACAAGGACCTACGCGTTTTCCATGCGGAGTCACCTAGTGCAG | 9400 fluorescence intensity (a.u.)
3 | AAATATGATTAATATTTTATGCGCGACTTGTCTTTTTAATCGGAGTCACCTAGTGCAG | 8280 fluorescence intensity (a.u.)
4 | ATTTTCAGTGAAGTCGCATTATCTTGCCTTGGTACATTCACGGAGTCACCTAGTGCAG | 10800 fluorescence intensity (a.u.)
5 | GATTCTCGCCCCGCACGCGACCTCGCATTTACGACAGATCCGGAGTCACCTAGTGCAG | 9640 fluorescence intensity (a.u.)
6 | CGATCCGTCCATCCATCCAGCGCGCGTCGGCCCGTCCATCCGGAGTCACCTAGTGCAG | 9350 fluorescence intensity (a.u.)
7 | GGGTATGCAGCTGTAGTATATGTTTCTTGATGTCTTCTTTCGGAGTCACCTAGTGCAG | 11300 fluorescence intensity (a.u.)
8 | CCTATCACATCGAACGTTTGAACACCTGCATAAAGTATTACGGAGTCACCTAGTGCAG | 8170 fluorescence intensity (a.u.)
9 | GTCGGTAATCCTTCAAGAGCGCCGGCGCTTCTTTCTTCGGCGGAGTCACCTAGTGCAG | 8400 fluorescence intensity (a.u.)
10 | TTCATATTCTTTTTTTTTTCGAGGTCATACTTTTTAATTCCGGAGTCACCTAGTGCAG | 12200 fluorescence intensity (a.u.)
11 | GAACAGCTTTCACCTGGCACTCCGTACAACCGCTCATCCTCGGAGTCACCTAGTGCAG | 8400 fluorescence intensity (a.u.)
12 | GGCAGCACGACTTGTAAAGCAACTGGACATAATGAATTCTCGGAGTCACCTAGTGCAG | 8340 fluorescence intensity (a.u.)
13 | CCCACGCTTGCCATTCTGCCGCTTAACGTAGCCACGTCAACGGAGTCACCTAGTGCAG | 9040 fluorescence intensity (a.u.)
14 | TCGCCTCTCGTTGCCCGCCGCGTCGCGCTCACGAGATCCCCGGAGTCACCTAGTGCAG | 9100 fluorescence intensity (a.u.)
15 | CTACCTTACCATTTCGATCACATCGGCAGAAACGGCTACTCGGAGTCACCTAGTGCAG | 8440 fluorescence intensity (a.u.)
16 | ACCACTTTGATCAAGCATTTTTTAGTAAAATTTTTGTACCCGGAGTCACCTAGTGCAG | 8400 fluorescence intensity (a.u.)
17 | ACTGGGATTCTAATAGTCATTATTCATGTGTTTTTTGTTTCGGAGTCACCTAGTGCAG | 8350 fluorescence intensity (a.u.)
18 | GGTGCTACTCCCAACGTCATATGTTGACCAGCGTCGAAGGCGGAGTCACCTAGTGCAG | 9900 fluorescence intensity (a.u.)
19 | CTCCAGCCGATATACATGCAGCCGCTGTCATCTTTTGTTCCGGAGTCACCTAGTGCAG | 9100 fluorescence intensity (a.u.)
20 | AGTGTTAATGTCAGAGTTTGTTCCAGGTATTTTCAGTTGACGGAGTCACCTAGTGCAG | 9250 fluorescence intensity (a.u.)
21 | TCGTCTTATTTGATTTTTTTTATAATTAGCATTTTTATTACGGAGTCACCTAGTGCAG | 10100 fluorescence intensity (a.u.)

Retrieved one by one from the list above:
Row | Sequence | binding signal
17 | ACTGGGATTCTAATAGTCATTATTCATGTGTTTTTTGTTTCGGAGTCACCTAGTGCAG | 8350 fluorescence intensity (a.u.)
16 | ACCACTTTGATCAAGCATTTTTTAGTAAAATTTTTGTACCCGGAGTCACCTAGTGCAG | 8400 fluorescence intensity (a.u.)

Continued:

Row | Sequence | binding signal
22 | AGCCGTCATCCTCAGTCTTGAATCTCATAGCAGTAATCGTCGGAGTCACCTAGTGCAG | 8170 fluorescence intensity (a.u.)
23 | TTTTCGTCGCTACTCCTACATGCGCTTCTATCTCTATTTACGGAGTCACCTAGTGCAG | 12400 fluorescence intensity (a.u.)
24 | GGTAGGATTGTACTTTTTTTTTTTTTGGGACGGAGGGGTACGGAGTCACCTAGTGCAG | 10100 fluorescence intensity (a.u.)
25 | GGGGTAGTTGAGTGGCAATTTTGTGTAAATATGTAAAAAACGGAGTCACCTAGTGCAG | 9160 fluorescence intensity (a.u.)
26 | ACCAAATTGTTCTCTATGTTACCGGTCAAGACTGCAGTTTCGGAGTCACCTAGTGCAG | 12900 fluorescence intensity (a.u.)
27 | GGACTCCTGATTTCTACTCTATTCCTATTCCACTAGCTTACGGAGTCACCTAGTGCAG | 14400 fluorescence intensity (a.u.)
28 | GTGCTCCAACTTCAGCCTCAACTTTTTATATTCACATTTACGGAGTCACCTAGTGCAG | 8260 fluorescence intensity (a.u.)
29 | CTGATCTTAACTCCGTGTTTTTCCGCGTTCTCTTTCGTTCCGGAGTCACCTAGTGCAG | 19600 fluorescence intensity (a.u.)
30 | ATGCACGTTTGTCCTGCTTTCCTTTCCTGTTGCTTCCATACGGAGTCACCTAGTGCAG | 14500 fluorescence intensity (a.u.)
31 | TCCGCAACACCCATCTAGTTTACACCGGTAAATTCGGTCACGGAGTCACCTAGTGCAG | 8460 fluorescence intensity (a.u.)
32 | TTTCTTTTTGTTTTAAGTTACTTTTATAATTTATGTAAATCGGAGTCACCTAGTGCAG | 8680 fluorescence intensity (a.u.)
33 | TTCCCGTAAATACCGTTGCTTCTCGGTTGATATTCTGATACGGAGTCACCTAGTGCAG | 11700 fluorescence intensity (a.u.)
34 | TTTTCAATTGTATGGCCCATTATAATGCACAAATATATAACGGAGTCACCTAGTGCAG | 8380 fluorescence intensity (a.u.)
35 | CGTTGTTACCACCTCATTTTACGTGGAACATTTAATCTTTCGGAGTCACCTAGTGCAG | 9030 fluorescence intensity (a.u.)
36 | TAAGCACAGTTGACTTTTTTTTTGGTGTGTTCCGGTGTATCGGAGTCACCTAGTGCAG | 20900 fluorescence intensity (a.u.)
37 | TGTTTCATATCTATCTTATATGTTATATATACGTCGCATTCGGAGTCACCTAGTGCAG | 9180 fluorescence intensity (a.u.)
38 | GACCGGCCAAGTGCTATAGCCGCTGCTCATCTCTCTAAACCGGAGTCACCTAGTGCAG | 8070 fluorescence intensity (a.u.)
39 | TTGTCAAGTTGTTGTACTCGGATGTTCAATTCTCATGTTCCGGAGTCACCTAGTGCAG | 10000 fluorescence intensity (a.u.)
40 | TCGCATATTCTTGTTCTTTTCTTTCCCCTGAACTAATAGCCGGAGTCACCTAGTGCAG | 8370 fluorescence intensity (a.u.)
41 | TGATGCTATACACAACTCTTTCTCTTGCTAACTGTGCTTACGGAGTCACCTAGTGCAG | 8400 fluorescence intensity (a.u.)
42 | TGCCACACTTTGCCATACTTGAGGTTAGACAAGTTTGACCCGGAGTCACCTAGTGCAG | 9090 fluorescence intensity (a.u.)

Source: paper PMC7819943, “Rice protein-binding microarrays: a tool to detect cis-acting elements near promoter regions in rice”
